According to the supplement of paper PMC8975748:
Structures can show the parent of a compound that is named as a salt. ± gives the standard deviation of the averaged measurements. The list shows a part of the results. Values are raw readings; no control value is given beside them.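 A single yeast strain with four plasmids, each encoding a fluorescent protein and an amino-acid or uracil biosynthesis gene, seeds the community. Stochastic plasmid loss yields mixed prototroph and auxotroph subpopulations. Fixed cells were counted via automated confocal fluorescence imaging; DMSO-treated wells were the vehicle reference.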

What follows are compounds tested on Saccharomyces cerevisiae BY4741 SeMeCo community (assay: imaged cell count per well (cells); higher = more cells). Conditions: 10 µM; 24 h; SM minimal medium.
Procedure: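 Same SeMeCo high-content imaging drug screen: Selleck FDA-approved drugs at 10 µM, 24 h in SM medium, 384-well plates, 3 replicates.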

| Structure (SMILES) | imaged cell count per well |
| --- | --- |
| CN(Cc1ccc(C(C)(C)C)cc1)Cc1cccc2ccccc12 [Butenafine HCl] | 24100 ± 7800 |
| CCOC(=O)C1=C(C)NC(C)=C(C(=O)OC)C1c1cccc([N+](=O)[O-])c1 (stereo unspecified) [Nitrendipine] | 23000 ± 430 |
| Cn1cc(C(=O)[C@@H]2CCc3[nH]cnc3C2)c2ccccc21 [Ramosetron Hydrochloride] | 18400 ± 7000 |
| CCCC1CC(C(=O)NC(C(C)Cl)C2OC(SC)C(O)C(O)C2O)N(C)C1 (stereo unspecified) [Clindamycin alcoholate] | 30600 ± 1200 |
| O=C(O[C@H]1CN2CCC1CC2)N1CCc2ccccc2[C@@H]1c1ccccc1 [Solifenacin succinate] | 21600 ± 7400 |
| CN[C@@H]1[C@H](O)[C@H](NC)[C@H]2O[C@@]3(O)C(=O)C[C@@H](C)O[C@H]3O[C@@H]2[C@H]1O [Spectinomycin 2HCl] | 21700 ± 3000 |
| CC(C)[C@H](N)C(=O)OCCOCn1cnc2c(=O)nc(N)[nH]c21 [Valaciclovir HCl] | 29000 ± 3100 |
| O=C(O)c1cc(/N=N/c2ccc(O)c(C(=O)O)c2)ccc1O [Olsalazine Sodium] | 26400 ± 3800 |
| CC1=C(C(=O)O)N2C(=O)[C@@H](NC(=O)[C@H](N)c3ccccc3)[C@H]2SC1 [Cephalexin] | 30200 ± 6200 |
| CCOC(=O)c1c(CSc2ccccc2)n(C)c2cc(Br)c(O)c(CN(C)C)c12 [Arbidol HCl] | 15200 ± 1800 |
| CN(C)[C@@H]1C(O)=C(C(N)=O)C(=O)[C@@]2(O)C(O)=C3C(=O)c4c(O)ccc(Cl)c4[C@@](C)(O)[C@H]3C[C@@H]12 [Chlortetracycline HCl] | 22500 ± 1300 |

3 entries out of the list, ordered by heavy-atom count, rising:

| Structure (SMILES) | imaged cell count per well |
| --- | --- |
| O=C(O)c1cc(/N=N/c2ccc(O)c(C(=O)O)c2)ccc1O [Olsalazine Sodium] | 26400 ± 3800 |
| CC1=C(C(=O)O)N2C(=O)[C@@H](NC(=O)[C@H](N)c3ccccc3)[C@H]2SC1 [Cephalexin] | 30200 ± 6200 |
| O=C(O[C@H]1CN2CCC1CC2)N1CCc2ccccc2[C@@H]1c1ccccc1 [Solifenacin succinate] | 21600 ± 7400 |
